How the values were obtained:
[1] = test system: human colorectal cancer cells HCT116 [인간 대장암 세포, HCT116]; assay: alamarBlue cell proliferation assay, human colorectal cancer cells HCT116; format: cell-based; settings: HCT-116
PLK-1 = assay: Western blot of Plk-1 in HCT116 cells; format: cell-based; settings: Western blot of selected compounds, HCT116 (Fig. 2: 1μM, 48 h; Fig. 8)

**Q.** With `COc1cc2c(c(OC)c1OC)-c1ccc(OC)c(=O)cc1[C@@H](NC(C)=O)CC2` [H11-G04, Colchicine] as the molecule, how does the IC50 ([1]; Table 1, inhibition of human colorectal cancer cell proliferation, 48 h) read?
**A.** 4 µM

**Q.** What about the IC50 ([1]; Homo sapiens, Table 2, structures and activity of colchicine derivatives) of the same molecule?
**A.** 4 µM

**Q.** And the “Plk-1 inhibition in selection of screened compounds” value (PLK-1)?
**A.** Plk-1을 억제하고
